Among the data in patent publication EP4653435A1, “PRMT5-MTA INHIBITOR” (Suzhou Puhe Biopharma Co., Ltd., priority 2023, dated 2024) are Papp A→B and Papp B→A values, retold here.

The Papp A→B is how fast a substance crosses the layer from the apical side. By Papp B→A is commonly meant how fast a substance crosses the layer from the basolateral side.

The nature of the series: in vitro. Particulars: dog, MDCK-MDR1, pH 7.4. Here is the method:
The membrane permeability of the molecules of the present invention was evaluated to predict their permeability to the brain.
The specific procedure was: 1. MDCK-MDR1 cells were pre-cultured at a density of 1.56*10^6 cells/mL in a 96-well plate at 37°C for 7 days. 2. The MDCKII-MDR1 plate was taken out of the incubator, rinsed twice with pre-warmed HBSS (10 mM HEPES, pH 7.4), and then incubated at 37°C for 30 minutes. 3. The stock solution of the compound to be tested was diluted with DMSO to obtain a 0.2 mM solution, and then diluted with HBSS (10 mM HEPES, pH 7.4) to obtain a 1 µM working solution. A blank control group was also diluted with DMSO to obtain a 0.2 mM solution, and then diluted with HBSS (10 mM HEPES, pH 7.4) to obtain a 1 µM working solution. The final concentration of DMSO in the culture system was 0.5%. 4. The transport rate of the drug in the apical to basolateral direction was determined: 125 µL of the 1 µM test compound solution was added to a Transwell insert (top compartment), before immediately transferring a 50 µL sample (D0 sample) from the top comparment to a new 96-well plate. The receiving plate wells (basolateral compartment) were filled with 235 µL HBSS (10 mM HEPES, pH 7.4) and incubated at 37°C for 2 hours. 5. […]

SMILES strings stand for the structures.

`Cc1cc2cc(C(=O)N(Cc3ccc(C(F)(F)F)cn3)[C@H](C)c3ncccn3)ccc2nc1N` [AM9747, reference compound]: the Papp A→B was 12.8 ×10⁻⁶ cm/s and the Papp B→A was 28.3 ×10⁻⁶ cm/s.
